Test results: paper PMC6954236
These are yes or no findings as the source states them, for the method shown. In cells and extracts the contact can be indirect. Some entries that bind do so weakly or less than the wild type.

Sequences of proteins named here, by UniProt entry; tags and fusion partners are left off.
UniProt Q96KS0: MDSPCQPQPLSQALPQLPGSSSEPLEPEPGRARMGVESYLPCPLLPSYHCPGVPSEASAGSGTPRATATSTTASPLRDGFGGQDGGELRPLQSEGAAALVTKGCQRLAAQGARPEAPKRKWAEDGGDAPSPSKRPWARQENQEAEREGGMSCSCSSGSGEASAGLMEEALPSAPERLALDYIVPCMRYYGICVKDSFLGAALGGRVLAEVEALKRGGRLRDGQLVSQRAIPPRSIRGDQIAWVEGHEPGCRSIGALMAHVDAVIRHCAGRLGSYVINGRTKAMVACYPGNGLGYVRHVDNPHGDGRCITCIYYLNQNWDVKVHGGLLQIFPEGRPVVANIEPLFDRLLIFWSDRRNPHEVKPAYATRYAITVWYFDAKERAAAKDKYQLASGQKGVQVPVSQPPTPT
UniProt Q9P2J5: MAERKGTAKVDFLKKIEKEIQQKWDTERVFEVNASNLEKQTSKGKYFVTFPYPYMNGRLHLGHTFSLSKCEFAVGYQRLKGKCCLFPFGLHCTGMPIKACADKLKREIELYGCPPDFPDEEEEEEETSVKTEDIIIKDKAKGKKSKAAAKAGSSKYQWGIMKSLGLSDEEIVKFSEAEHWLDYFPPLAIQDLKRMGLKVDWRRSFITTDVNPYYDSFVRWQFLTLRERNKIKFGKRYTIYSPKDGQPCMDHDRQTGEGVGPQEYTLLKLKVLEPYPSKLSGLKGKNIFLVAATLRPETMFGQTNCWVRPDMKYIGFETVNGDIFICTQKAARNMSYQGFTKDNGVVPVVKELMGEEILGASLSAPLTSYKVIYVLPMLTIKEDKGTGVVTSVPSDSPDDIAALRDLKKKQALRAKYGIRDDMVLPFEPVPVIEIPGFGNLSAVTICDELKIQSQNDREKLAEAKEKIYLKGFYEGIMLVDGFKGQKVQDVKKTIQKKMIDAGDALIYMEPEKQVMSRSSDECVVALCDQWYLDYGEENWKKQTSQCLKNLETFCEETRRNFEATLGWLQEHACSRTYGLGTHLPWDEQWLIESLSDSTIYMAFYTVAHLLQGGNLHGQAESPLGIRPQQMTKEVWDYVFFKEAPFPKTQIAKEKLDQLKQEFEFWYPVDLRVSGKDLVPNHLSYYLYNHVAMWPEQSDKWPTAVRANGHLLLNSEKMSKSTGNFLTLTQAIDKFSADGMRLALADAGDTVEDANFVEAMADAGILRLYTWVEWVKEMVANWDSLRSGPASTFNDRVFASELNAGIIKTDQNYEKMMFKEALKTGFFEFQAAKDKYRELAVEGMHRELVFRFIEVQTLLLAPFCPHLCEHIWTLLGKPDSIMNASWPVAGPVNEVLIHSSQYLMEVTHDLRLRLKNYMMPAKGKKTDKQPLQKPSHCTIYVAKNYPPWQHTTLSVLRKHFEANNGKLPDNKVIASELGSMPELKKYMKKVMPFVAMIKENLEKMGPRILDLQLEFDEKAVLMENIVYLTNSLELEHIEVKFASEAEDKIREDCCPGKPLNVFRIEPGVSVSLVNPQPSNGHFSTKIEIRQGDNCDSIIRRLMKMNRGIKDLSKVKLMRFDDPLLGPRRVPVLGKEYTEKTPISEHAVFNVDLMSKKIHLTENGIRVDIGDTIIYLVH

Biological target: flag-PHD1^WT (prolyl hydroxylase domain isoform 1) (UniProt Q96KS0)
Experiment: co-IP; HEK293T co-transfected with Myc-LRS and flag-PHD1 (WT or MUT) for 72 h; 300 µg lysate protein on ANTI-FLAG M2 Affinity Gel at 4 °C overnight; washed 3 times in lysis buffer with 50 mM NaCl added; blot with anti-myc; cells untreated, treated with DMOG or amino acid starved for 4 h

binding: binds weakly
Substance: myc-LRS (leucyl tRNA synthetase) (from UniProt Q9P2J5 1-1176) (enzyme)
